Counter-ions that a name gives are not always drawn. At least one structure is not confirmed: it was looked up by name or label, or the drawing left a doubt.
Test system: guar explants
Experiment: Agrobacterium-mediated transformation of guar cotyledon explants: selection, shoot harvest and GUS test
Type: cell-based, Cyamopsis tetragonoloba
Method: Cotyledons with about 2 mm of hypocotyl were excised from 12 day old seedlings. The cotyledons were then torn apart using a tweezers to create wound surfaces and placed in the Agrobacterium-suspension for 30 min.
Co-cultivation proceeded for 3 days at 25° C. and a 12 h/12 h day/night regime. After co-culture the explants were washed with 1/10 MS-medium, to which 100 mg/l carbenicillin, 100 mg/l cefotaxime and 1000 mg/l lysozyme had been added, 2-3 times for 45 min. while stirring at 100 rpm.
The explants were transferred to selection medium and incubated as above (25° C., 12 h day/12 h night).
After 4 weeks, shoots larger than 3 mm were harvested and transferred to shoot medium. After 10-14 days the shoots were tested for activity of the reporter gene β-glucuronidase (GUS), see below. GUS-positive shoots were transferred to fresh shoot medium while the GUS-negative shoots were discarded.
After the first harvest, explants (from which shoots had been harvested) were transferred to a second selection medium with a lower kanamycin concentration (50 mg/l) . After another 4 weeks shoots were harvested and GUS-tested. […]
Tips of young leaves were excised and transferred to a multi-dish well containing 200 μl X-gluc solution. After incubation for 16 h at 35° C. the leaf tips were destained with 96% ethanol and the degree of blue stain was determined under a microscope.

NC[C@H]1O[C@H](O[C@H]2[C@H](O)[C@@H](O[C@H]3O[C@H](CO)[C@@H](O)[C@H](N)[C@H]3O)[C@H](N)C[C@@H]2N)[C@H](O)[C@@H](O)[C@@H]1O [Kanamycin sulf., kanamycin sulfate]
transgenic shoots obtained (100 mg/l kanamycin or less): only very few | transgenic shoots found at the second harvest (kanamycin concentration maintained at 125-145 mg/l): only a few

Source: patent US20010034887A1, “Transformation of guar” (priority 1994, published 2001)
